Reference: patent publication US20250249092A1 (TORAY INDUSTRIES, published 2025)
Results are given in words; binding and its absence hold for the method and conditions named. Some binding calls cover weakened binding; strength is not graded here.

T1: CAPRIN-1 protein (UniProt Q14444)
T1 sequence (looked up): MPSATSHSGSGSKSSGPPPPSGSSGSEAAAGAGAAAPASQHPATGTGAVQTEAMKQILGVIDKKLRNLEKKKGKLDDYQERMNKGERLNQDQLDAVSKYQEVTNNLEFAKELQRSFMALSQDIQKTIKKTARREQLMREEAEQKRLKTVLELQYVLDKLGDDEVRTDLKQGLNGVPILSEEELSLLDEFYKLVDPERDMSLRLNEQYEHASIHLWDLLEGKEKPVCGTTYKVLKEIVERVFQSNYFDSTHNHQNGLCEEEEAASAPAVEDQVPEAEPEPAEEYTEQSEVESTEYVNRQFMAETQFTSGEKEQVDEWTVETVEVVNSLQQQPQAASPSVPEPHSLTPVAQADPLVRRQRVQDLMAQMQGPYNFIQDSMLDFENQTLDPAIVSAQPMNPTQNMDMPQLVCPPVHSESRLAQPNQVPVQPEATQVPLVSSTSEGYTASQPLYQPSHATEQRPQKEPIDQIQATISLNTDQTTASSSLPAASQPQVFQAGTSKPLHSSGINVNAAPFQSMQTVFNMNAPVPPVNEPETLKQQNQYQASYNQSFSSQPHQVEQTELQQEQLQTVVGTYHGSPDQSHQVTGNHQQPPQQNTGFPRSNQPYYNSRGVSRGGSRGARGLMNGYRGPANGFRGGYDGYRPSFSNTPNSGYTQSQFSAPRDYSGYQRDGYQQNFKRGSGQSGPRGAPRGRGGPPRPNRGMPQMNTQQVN

T2: CAPRIN-1 protein on the cell membrane surface of cancer cells (UniProt Q14444)
T2 sequence (looked up): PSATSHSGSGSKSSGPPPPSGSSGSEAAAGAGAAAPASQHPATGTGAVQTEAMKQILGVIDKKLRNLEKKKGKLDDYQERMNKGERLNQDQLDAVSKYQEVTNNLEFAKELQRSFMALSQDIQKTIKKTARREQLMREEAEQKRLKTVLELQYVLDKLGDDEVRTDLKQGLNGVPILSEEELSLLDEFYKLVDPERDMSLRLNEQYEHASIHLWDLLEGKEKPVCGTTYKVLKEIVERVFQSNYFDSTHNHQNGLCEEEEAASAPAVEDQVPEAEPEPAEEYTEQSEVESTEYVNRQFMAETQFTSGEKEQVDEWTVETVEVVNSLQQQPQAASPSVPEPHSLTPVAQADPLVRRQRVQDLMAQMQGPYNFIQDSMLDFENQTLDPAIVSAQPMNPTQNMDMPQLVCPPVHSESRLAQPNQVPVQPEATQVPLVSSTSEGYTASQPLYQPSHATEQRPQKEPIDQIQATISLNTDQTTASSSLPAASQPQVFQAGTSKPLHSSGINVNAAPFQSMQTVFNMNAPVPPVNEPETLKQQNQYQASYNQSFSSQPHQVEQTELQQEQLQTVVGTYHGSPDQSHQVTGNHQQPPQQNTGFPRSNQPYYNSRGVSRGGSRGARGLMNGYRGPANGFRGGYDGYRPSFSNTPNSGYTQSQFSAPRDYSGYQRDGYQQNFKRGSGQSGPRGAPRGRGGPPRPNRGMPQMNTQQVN

B1: Conjugate 49 (antibody, human IgG1, V domains shown)
VH: GAELVRSGASVKMSCKASGYSFTDYNMYWVKQTPGQGLEWIGYIYPGNGGTNYNQKFKGKATLTADTSSSTAYMQISSLTSEDSAVYFCARDYDDGGYAMDYWGQGTTVTVSS
VL: DIQMTQSPASLSASVGETVTITCRASGNIHNYLTWYQQKQGKSPQLLVYNAKTLADGVPSRFSGSGSGTQYSLKINRLQPEDFGSYYCQHFWNIPWTFGGGTKLNSR
B2: Conjugate 50 (antibody, human IgG1, V domains shown)
VH: DAELVKPGASVKISCKASGYTFTDHSIHWVQQKPEQGLEWIGYISPGNGNIKYNEKFKGKATLTADKSSSTAYMQLNSLTSEDSAVYFCKRSLGRGGPYYFDYWGQGTTVTVSS
VL: DIVLTQAAPSLPVTPGESVSISCRSSKSLLHSNGNTYLYWFLQRPGQSPQLLIYRMSNLASGVPDRFSGSGSGTAFTLRISRVEAEDVGVYYCMQHREYPVTFGSGPN
B3: Conjugate 55 (antibody, human IgG1, V domains shown)
VH: EVQLHQFGAELVKPGASVKISCKASGYTFTDYNMDWVKQSHGKSLEWIGDINPNYDSTSYNQKFKGKATLTVDKSSSTAYMELRSLTSEDTAVYYCARSRSYDYEGFAYWGQGTLVTVSA
VL: DIQMTQSPASLSASVGETVTITCRASGNIHNYLAWYQQKQGKSPQLLVYNAKTLADGVPSRFSGSGSGTQYSLKINSLQPEDFGSYYCQHFWSTLTFGAGTKLELKR
B4: Mouse chimeric antibody #32 (antibody, V domains shown)
VH: EVQLVESGGGLVQPGGSLRLSCAASGFSLSSHSLGWVRQAPGKGLEWIGDIRSGGSAYYANWAKGRFTISRDNSKNTLYLQMNSLRAEDTAVYYCTRTNGPSDLTNRLDLWGQGTLVTVSS
VL: QVLTQSPSSLSASVGDRVTINCQASQSLYNNENLAWFQQKPGKVPKRLIYGASTLASGVSSRFSGSGSGTEFTLTISSLQCEDFAIYYCLGEFSCGSADCFAFGGGTKVEIK
B5: Mouse chimeric antibody #37 (antibody, V domains shown)
VH: EVQLVESGGGLVQPGGSLRLSCAASGFSLSSHSLGWVRQAPGKGLEWIGDIRSGGSAYYANWAKGRFTISRDNSKNTLYLQMNSLRAEDTAVYFCTRTNGPSDLTNRLDLWGQGTLVTVSS
VL: EQVLTQSPSSLSASVGDRVTINCQASQSLYNNENLAWFQQKPGKVPKRLIYGASTLASGVSSRFSGSGSGTEFTLTISNLQPEDFAIYYCLGEFSCGSADCFAFGGGTKVEIK
B6: Mouse chimeric antibody #36 (antibody, V domains shown)
VH: EVQLVESGGGLVQPGGSLRLSCAASGFSLSSHSLGWVRQAPGKGLEWIGDIRSGGSAYYANWAKGRFTISRDNSKNTLYLQMNSLRAEDTAVYYCTRTNGPSDLTNRLDLWGQGTLVTVSS
VL: EIVLTQSPSSLSASVGDRVTINCQASQSLYNNENLAWFQQKPGKVPKRLIYGASTLASGVSSRFSGSGSGTEFTLTISNLQPEDFATYYCLGEFSCGSADCFAFGGGTKVEIK
B7: Mouse chimeric antibody #34 (antibody, V domains shown)
VH: EVQLVESGGGLVQPGGSLRLSCAASGFSLSSHSLGWVRQAPGKGLEWIGDIRSGGSAYYANWAKGRFTISRDNSKNTLYLQMNSLRAEDTAVYYCTRTNGPSDLTNRLDLWGQGTLVTVSS
VL: EQVLTQSPSSLSASVGDRVTINCQASQSLYNNENLAWFQQKPGKVPKRLIYGASTLASGVSSRFSGSGSGTEFTLTISNLQPEDFAIYYCLGEFSCGSADCFAFGGGTKVEIK
B8: Mouse chimeric antibody #35 (antibody, V domains shown)
VH: EVQLVESGGGLVQPGGSLRLSCAASGFSLSSHSLGWVRQAPGKGLEWIGDIRSGGSAYYANWAKGRFTISRDNSKNTLYLQMNSLRAEDTAVYFCTRTNGPSDLTNRLDLWGQGTLVTVSS
VL: EIVLTQSPSSLSASVGDRVTINCQASQSLYNNENLAWFQQKPGKVPKRLIYGASTLASGVSSRFSGSGSGTEFTLTISNLQPEDFATYYCLGEFSCGSADCFAFGGGTKVEIK
B9: Mouse chimeric antibody #33 (antibody, V domains shown)
VH: EVQLVESGGGLVQPGGSLRLSCAASGFSLSSHSLGWVRQAPGKGLEWIGDIRSGGSAYYANWAKGRFTISRDNSKNTLYLQMNSLRAEDTAVYFCTRTNGPSDLTNRLDLWGQGTLVTVSS
VL: QVLTQSPSSLSASVGDRVTINCQASQSLYNNENLAWFQQKPGKVPKRLIYGASTLASGVSSRFSGSGSGTEFTLTISSLQCEDFAIYYCLGEFSCGSADCFAFGGGTKVEIK
B10: Mouse chimeric antibody #9 (antibody, V domains shown)
VH: GAELVRSGASVKMSCKASGYSFTDYNMYWVKQTPGQGLEWIGYIYPGNGGTNYNQKFKGKATLTADTSSSTAYMQISSLTSEDSAVYFCARDYDDGGYAMDYWGQGTTVTVSS
VL: DIQMTQSPASLSASVGETVTITCRASGNIHNYLTWYQQKQGKSPQLLVYNAKTLADGVPSRFSGSGSGTQYSLKINRLQPEDFGSYYCQHFWNIPWTFGGGTKLNSR
B11: mouse chimeric antibody #3 (antibody, V domains shown)
VH: AVTLDESGGGLQTPGGGLSLVCKASGFTFSSFDMGWVRQAPGKGLEFVAQINDAGSRTWYATAVKGRATISRDNGQTTVRLQLNNLRAEDTGTYYCTRGSGYVGAGAIDAWGHGTEVIVS
VL: AALTQPSSVSANPGETVKITCSGGSGYYGWYQQQKSPGSAPVTVIYQNDKRPSDIPSRFSGSGSGSTNTLTITGVQAEDEAVYFCGRYDSTDSGIFGAGTTLTVL
B12: Mouse chimeric antibody #5 (antibody, V domains shown)
VH: AVTLDESGGGLQTPGGALSLVCKASGFTFSGYDMLWVRQAPGKGLEWVAGIGSTGGGTDYGAAVKGRATISRDNGQSTVRLQLNNLRAEDTATYYCAKVAGGCNSGYCRDSPGSIDAWGHGTEVIVS
VL: AVTQQPASVSANPGETVKITCSGGGSRNYYGWYQQKSPGSVPVTVIYYDDQRPSNIPSRFSGALSGSTSTLTITGVQADDEAVYFCGSADSNTYEGSFGAGTTLTVL
B13: Mouse chimeric antibody #10 (antibody, V domains shown)
VH: DAELVKPGASVKISCKASGYTFTDHSIHWVQQKPEQGLEWIGYISPGNGNIKYNEKFKGKATLTADKSSSTAYMQLNSLTSEDSAVYFCKRSLGRGGPYYFDYWGQGTTVTVSS
VL: DIVLTQAAPSLPVTPGESVSISCRSSKSLLHSNGNTYLYWFLQRPGQSPQLLIYRMSNLASGVPDRFSGSGSGTAFTLRISRVEAEDVGVYYCMQHREYPVTFGSGPN
B14: Mouse chimeric antibody #26 (antibody, V domains shown)
VH: GPDLVKPGASVKISCKASGYSFTAYYMHWVKQSHGKSLEWIGRVNPNNGGTTYNQKFKGKAILTVDKSSSTAYMELRSLTFEDSAVYYCARRIYYGYFDYWGQGTTVTVSS
VL: AFFAVSLGQRATISCKASQSVDYDGDSYMNWYQQKPGQPPKLLIYVASNLESGVPARFSGSGSGTDFTLNIHPVEEEDAATYYCQQSNEDPYTFGGGTKLEIKQ
B15: Mouse chimeric antibody #15 (antibody, V domains shown)
VH: EVQLHQFGAELVKPGASVKISCKASGYTFTDYNMDWVKQSHGKSLEWIGDINPNYDSTSYNQKFKGKATLTVDKSSSTAYMELRSLTSEDTAVYYCARSRSYDYEGFAYWGQGTLVTVSA
VL: DIQMTQSPASLSASVGETVTITCRASGNIHNYLAWYQQKQGKSPQLLVYNAKTLADGVPSRFSGSGSGTQYSLKINSLQPEDFGSYYCQHFWSTLTFGAGTKLELKR
B16: mouse chimeric antibody #4 (antibody, V domains shown)
VH: QSLEESGGDLVKPGASLTLTCTASGFSFSGSYYMSWVRQAPGKGLEWIAYIYIGDGVTAYANWAKGRFTISKASSTTVTLQMTSLTAADTATYFCARGNKLWGPGTLVTVSS
VL: DVVMTQTPASVEAAVGGTVTIKCQASQSISSYLAWYQQKPGQPPKRLIYDASNLDSGVPSRFKGSGSGTDFTITISDLECADAATYYCQCTAVSSATIYGNAFGGGTEVVVK

target: T1, CAPRIN-1 protein; assay: ELISA

binding, binds:
B1
B2
B3

target: T2, CAPRIN-1 protein on the cell membrane surface of cancer cells; assay: flow cytometry

binding, binds:
B4
B5
B6
B7
B8
B9
B1
B10
B11
B12
B2
B13
B14
B3
B15
B16
